Test results as given in PubChem BioAssay AID540276 (National Center for Advancing Translational Sciences (NCATS), 2011).
In all, about 300,000 compounds went through this assay and about 5,400 (1.8%) were called active. The inconclusive results got no clear call from the source; some entries with a clear call stand among them for comparison. The call rests on the fitted dose curve; tested in HEK293 cells. A potency beside an inconclusive call is a rough fit, not a confirmed value.

Assay: qHTS for inhibitors of binding or entry into cells for Marburg Virus
Conditions: Marburg virus pseudotyped entry inhibition, cell reporter; series mostly up to 37.8 µM
Potency means the concentration at half of the fitted maximal effect.

Question: For O=C(CNC(=O)c1cccnc1)N/N=C/c1ccc(O)cc1O, which Potency is on record?
Answer: inactive

Question: With COC(=O)c1ccc(CSc2nc3c(cnn3-c3ccc(F)cc3)c(=O)[nH]2)o1 as the compound, how does the Potency read?
Answer: inactive

Question: Which Potency does the source give for CCOC(=O)c1ccc(NC(=S)N(CCCN(CC)CC)Cc2ccco2)cc1 here?
Answer: inactive

Question: For O=C(O)c1cc([N+](=O)[O-])ccc1NCCCc1ccccc1, which Potency is on record?
Answer: inconclusive: 0.112 µM [inhibitor, full curve, poor fit]

Question: Which Potency does the source give for CCOC(=O)CCn1cc(F)c(=O)n(Cc2ccccc2)c1=O here?
Answer: inconclusive: 23.1 µM [activator, single point]

Question: With COc1ccccc1N1CCN(C(=S)Nc2ccc(S(=O)(=O)N3CCOCC3)cc2)CC1 as the compound, how does the Potency read?
Answer: inconclusive: 35.5 µM [inhibitor, single point]

Question: For Cc1cnc(C(=O)Nc2cc(S(=O)(=O)N3CCOCC3)ccc2N2CCN(C)CC2)cn1, which Potency is on record?
Answer: inconclusive: 4.11 µM [activator, single point]

Question: For Cc1cc(C)c(NC(=O)/C(=C/c2ccco2)c2ccccc2)c(C)c1, which Potency is on record?
Answer: inactive

Question: Which Potency does the source give for Cc1ccc(OCCn2nnc3ccccc32)cc1C here?
Answer: inconclusive: 3.16 µM [activator, single point]

Question: For O=C(Oc1oc(-c2ccco2)nc1C=Nc1ccccc1)c1ccoc1, which Potency is on record?
Answer: inactive

Question: Which Potency does the source give for Cc1c(NS(=O)(=O)c2cc(C(=O)N3CCCC(C)C3)ccc2Cl)c(=O)n(-c2ccccc2)n1C (stereo not drawn) here?
Answer: inconclusive: 6.31 µM [inhibitor, single point]

Question: With COc1cccc(NC(=O)C2CCCN(c3ncnc4c3nc3n4CCCCC3)C2)c1 (stereo not drawn) as the compound, how does the Potency read?
Answer: inconclusive: 22.4 µM [inhibitor, single point]

Question: For FC(F)(F)c1cccc(CNC2CCN(Cc3ccccc3)CC2)c1, which Potency is on record?
Answer: inconclusive: 22.4 µM [inhibitor, single point]

Question: Which Potency does the source give for COc1cc(/C=N/Nc2ccccc2)ccc1O here?
Answer: inconclusive: 7.08 µM [inhibitor, partial curve, poor fit]

Question: Which Potency does the source give for CCN(CC)CCN=Cc1c(O)n(C2CCCCCC2)c(=O)[nH]c1=O here?
Answer: inactive

Question: With CCOc1nonc1C(=N)/C(C(C)=O)=C(\C)O as the compound, how does the Potency read?
Answer: inactive

Question: For O=C(c1ccc(Cl)cc1)N1CCN(CCOc2ccccc2)CC1, which Potency is on record?
Answer: inactive

Question: With CC(=O)NC12CC3CC(C1)CC(C(=O)Oc1ccc(N(C)S(=O)(=O)c4cc(C)ccc4C)cc1)(C3)C2 as the compound, how does the Potency read?
Answer: inactive

Question: With N=c1sccn1CC(=O)Nc1cc(S(=O)(=O)N2CCCCC2)ccc1Cl as the compound, how does the Potency read?
Answer: inconclusive: 1.26 µM [inhibitor, partial curve, poor fit]

Question: Which Potency does the source give for Cc1nn(CC(=O)Nc2ccc3c(c2)nc(CCN2CCCCC2)n3C)c(=O)c2ccccc12 here?
Answer: inconclusive: 11.6 µM [inhibitor, partial curve]

Question: Which Potency does the source give for C=CCN1C(c2ccc(OCC)cc2)=CS/C1=C(\C#N)c1nnc2n1CCCCC2 here?
Answer: inconclusive: 29.1 µM [inhibitor, single point]

Question: Which Potency does the source give for Cc1ccn2c(c1)nc(=S)n2C(=O)c1ccccc1 here?
Answer: inconclusive: 0.112 µM [activator, full curve, poor fit]

Question: For CC(C)n1c(C(=O)OCC(=O)NCc2ccc3c(c2)OCO3)cc2occc21, which Potency is on record?
Answer: inconclusive: 1.83 µM [inhibitor, partial curve]

Question: Which Potency does the source give for CCOC(=O)c1c(Nc2cc(C)cc(C)c2)nnc(-c2ccccc2)c1-c1ccccc1 here?
Answer: inconclusive: 35.5 µM [inhibitor, single point]

Question: Which Potency does the source give for N#Cc1cccc(NC(=O)C2SC(=Nc3ccccc3)C(C(=O)N3CCOCC3)=C2N)c1 (stereo not drawn) here?
Answer: inconclusive: 12.6 µM [inhibitor, partial curve, poor fit]

Question: For Cc1cccc(N2CCN(Cc3ccc4c(c3)OCO4)CC2)c1C, which Potency is on record?
Answer: inconclusive: 3.98 µM [inhibitor, partial curve, poor fit]

Question: For Cc1ccc(CN2C3CCCC2CC(NC(=O)c2ccc(F)cc2)C3)cc1 (stereo not drawn), which Potency is on record?
Answer: active: 7.08 µM

Question: Which Potency does the source give for O=C(OCc1cn([C@@H]2CN(C(=O)C3CCCCC3)[C@@H](c3ccccc3)C[C@@H]2O)nn1)c1ccccc1 here?
Answer: inconclusive: 6.28 µM [inhibitor, full curve]

Question: Which Potency does the source give for CCOC(=O)N1CCN(C(=O)CSc2nc3c(c(=O)n2-c2ccccc2OC)SCC3)CC1 here?
Answer: inconclusive: 17.8 µM [activator, single point]

Question: For CCCCC(=O)OC1=C(C(=O)c2ccccc2)N(CC)S(=O)(=O)c2ccccc21, which Potency is on record?
Answer: inconclusive: 3.16 µM [inhibitor, full curve, poor fit]

Question: With O=C(NCc1ccccc1OC(F)(F)F)C1CCC(=O)N(CCc2ccccn2)C1 (stereo not drawn) as the compound, how does the Potency read?
Answer: inactive

Question: With CCCCNC(=O)CSc1nc2cc3c(cc2c(=O)n1CCCN(CC)CC)OCO3 as the compound, how does the Potency read?
Answer: inconclusive: 5.8 µM [inhibitor, full curve]

Question: With CCC(CC)=C(C#N)C(=O)NC1CCCCC1 as the compound, how does the Potency read?
Answer: inconclusive: 1.12 µM [activator, single point]

Question: Which Potency does the source give for C=CCn1c(/N=C/c2ccc(N(C)C)cc2)nc2ccccc21 here?
Answer: inconclusive: 18.3 µM [activator, single point]

Question: For O=C1COc2ccc(C(=O)COc3ccc(Cl)cc3Br)cc2N1, which Potency is on record?
Answer: inconclusive: 2.82 µM [activator, partial curve, poor fit]

Question: With CCOc1ccc(Nc2nc(N)nc(CN3CCN(c4ccccc4F)CC3)n2)cc1 as the compound, how does the Potency read?
Answer: inconclusive: 10 µM [inhibitor, partial curve, poor fit]

Question: Which Potency does the source give for CCN1CCN(c2cc(C)c3cc(NC(=O)c4cncc(Br)c4)ccc3n2)CC1 here?
Answer: inconclusive: 35.5 µM [inhibitor, single point]

Question: Which Potency does the source give for Cc1ccc(Nc2nc(N)nc(CN3CCN(C)CC3)n2)cc1 here?
Answer: inactive

Question: Which Potency does the source give for O=C(COc1ccc(Br)cc1)NCCNC(=O)c1cccnc1 here?
Answer: inconclusive: 35.5 µM [activator, single point]

Question: With O=S(=O)(Cc1ccccc1)C1CCCCC1O (stereo not drawn) as the compound, how does the Potency read?
Answer: inconclusive: 2.51 µM [inhibitor, single point]

Question: Which Potency does the source give for CCOC(=O)c1nnn(CC(=O)NC(=O)Nc2cccc(CC)c2)c1C(=O)OCC here?
Answer: inconclusive: 11.2 µM [activator, partial curve, poor fit]

Question: For COc1cccc(C2CC(C(F)(F)F)n3ncc(C(=O)NC(C)(C)C)c3N2)c1 (stereo not drawn), which Potency is on record?
Answer: inactive

Question: Which Potency does the source give for O=C(Nc1ccccc1F)c1ccc(-c2ccccc2)s1 here?
Answer: inconclusive: 7.94 µM [activator, partial curve, poor fit]

Question: For O=C(NNc1ccccc1)C(=O)NNc1ccccc1, which Potency is on record?
Answer: inconclusive: 3.16 µM [inhibitor, single point]

Question: Which Potency does the source give for COc1ccc(C(=O)NCC(c2ccc3c(c2)OCO3)N2CCN(c3ccc(OC)cc3)CC2)cc1 (stereo not drawn) here?
Answer: inconclusive: 22.4 µM [inhibitor, single point]

Question: Which Potency does the source give for Nc1nnnn1/N=C/c1ccc(O)cc1 here?
Answer: inactive

Question: For Cc1ccc(NC(=O)Cn2c(-c3ccc(F)cc3)cnc2SCC(=O)Nc2c(C)cccc2C)cc1, which Potency is on record?
Answer: inconclusive: 35.5 µM [inhibitor, single point]

Question: For Nc1cc(N)nc(SCC(=O)Nc2cc(S(=O)(=O)N3CCOCC3)ccc2Cl)n1, which Potency is on record?
Answer: inconclusive: 7.94 µM [inhibitor, partial curve]

Question: Which Potency does the source give for COc1ccc(-c2nnc3c4ccccc4c(-c4ccccc4)nn23)cc1 here?
Answer: inconclusive: 6.31 µM [activator, single point]

Question: With CCc1ccc(NC(=O)c2ccccc2Br)cc1 as the compound, how does the Potency read?
Answer: inconclusive: 1.58 µM [activator, partial curve, poor fit]

Question: With COc1ccc(S(=O)(=O)N2CCCCC2)cc1NC(=O)c1ccc2ccccc2n1 as the compound, how does the Potency read?
Answer: inconclusive: 0.1 µM [inhibitor, full curve, poor fit]

Question: With COc1cc(OC)c(C(=O)OCC(=O)Nc2ccccc2Cl)cc1OC as the compound, how does the Potency read?
Answer: inactive

Question: For O=C1NC(=O)C(=C2CCCCCC2)S1, which Potency is on record?
Answer: inconclusive: 1.16 µM [activator, single point]

Question: Which Potency does the source give for O=C(NNC(=O)c1ccncc1)Nc1ccc(N=Nc2ccccc2)cc1 here?
Answer: inactive

Question: Which Potency does the source give for Cc1cc(N2CCCC2=O)ccc1S(=O)(=O)NCCOc1ccccc1 here?
Answer: inconclusive: 8.91 µM [inhibitor, single point]

Question: With CC(Oc1ccc(Cl)cc1Cl)C(=O)Nc1cccc(O)c1 (stereo not drawn) as the compound, how does the Potency read?
Answer: inactive

Question: For CC(C)c1nc2c(c(=O)c3ccccc3n2C)c(=O)n1CCc1ccccc1, which Potency is on record?
Answer: inconclusive: 35.5 µM [inhibitor, single point]

Question: With CC(=O)N1N=C(c2ccc(Cl)cc2)CC1c1ccc([N+](=O)[O-])cc1 (stereo not drawn) as the compound, how does the Potency read?
Answer: inactive

Question: For CCOCCCNC(=O)C(c1ccc(C)cc1)N(Cc1cccs1)C(=O)c1ccccc1O (stereo not drawn), which Potency is on record?
Answer: inconclusive: 14.1 µM [inhibitor, partial curve, poor fit]

Question: With COc1ccc(N2CC(O)(c3ccc(C)cc3)[N+]3=C2CCCC3)cc1 (stereo not drawn) as the compound, how does the Potency read?
Answer: inactive

Question: Which Potency does the source give for O=Cc1c(C(=O)O)n(Cc2ccc(Cl)cc2)c2ccccc12 here?
Answer: inconclusive: 1 µM [activator, single point]

Question: With COc1ccc(CNC(=O)C2CCN(S(=O)(=O)c3ccc(C)cc3)CC2)cc1 as the compound, how does the Potency read?
Answer: inconclusive: 12.6 µM [inhibitor, partial curve, poor fit]

Question: Which Potency does the source give for CCC1CCCCN1CCCNC(=O)c1cc2c(=O)n(CC)c3ccccc3c2s1 (stereo not drawn) here?
Answer: inactive

Question: With COc1ccc(NS(=O)(=O)c2cccc(C(=O)NCc3cccnc3)c2)cc1 as the compound, how does the Potency read?
Answer: inactive

Question: With Cc1cc(C)cc(-n2c(C)cc(C(=O)CSc3nnnn3C)c2C)c1 as the compound, how does the Potency read?
Answer: inconclusive: 35.5 µM [inhibitor, single point]

Question: Which Potency does the source give for COc1cccc(CN2CCN(S(=O)(=O)c3ccc(Br)cc3)CC2)c1 here?
Answer: inactive

Question: For COC(=O)c1cc(=O)n(Cc2cccs2)c(=NCc2cccs2)s1, which Potency is on record?
Answer: inconclusive: 29.1 µM [inhibitor, single point]

Question: For COc1ccc(S(=O)(=O)NCC(c2ccco2)N2CCc3ccccc32)cc1 (stereo not drawn), which Potency is on record?
Answer: inconclusive: 35.5 µM [inhibitor, single point]
